{"source": "patent EP1263458B1", "about": "“LOWERING SERUM CHOLESTEROL” (NOVO NORDISK A/S, priority 2000, dated 2005)", "format_in_all_cases": "in vivo", "key": {"[1]": {"tested_on": "male Zucker Diabetic Fatty fa/fa (ZDF) rat", "experiment": "Long-term treatment of male Zucker Diabetic Fatty rats: blood glucose, oral glucose tolerance test, lipid parameters", "conditions": "for Free fatty acids / Total cholesterol: non-fasted plasma at termination of study, mean±SEM; for Free fatty acids: vehicle group A 0.34±0.01; for Total cholesterol: vehicle group A 2.8±0.1; for blood glucose levels during a normal 24-hour feeding schedule: after 10 days of dosing"}, "[2]": {"tested_on": "Wistar rats subjected to neonatal monosodium glutamate treatment (MSG)", "experiment": "Acute and subchronic anorectic effects, plasma triglycerides, model of hypothalamic obesity (MSG rats)", "conditions": "100 µg/kg s.c. twice daily; text does not say whether normal or MSG rats", "description": "Solutions were always made fresh approximately 1 hour prior to use and stored at 4°C in sterile tubes."}, "normal Wistar rats": {"tested_on": "normal Wistar rats", "experiment": "Acute and subchronic anorectic effects, plasma triglycerides, normal Wistar rats", "conditions": "100 µg/kg subcutaneous injection twice daily, lowered from 1.58±0.1"}, "[3]": {"conditions": "150 µg/kg s.c. bi-daily vs vehicle, termination of study"}, "[4]": {"conditions": "Group B, 30 µg/kg s.c. bi-daily"}, "[5]": {"conditions": "Group C, 150 µg/kg s.c. bi-daily"}}, "note": "Part of at least one peptide drawing is inferred or uncertain, most often the ends.", "data": [{"smiles": "CCCCCCCCCCCCCCCC(=O)N[C@@H](CCC(=O)NCCCC[C@H](NC(=O)[C@H](C)NC(=O)[C@H](C)NC(=O)[C@H](CCC(N)=O)NC(=O)CNC(=O)[C@H](CCC(=O)O)NC(=O)[C@H](CC(C)C)NC(=O)[C@H](Cc1ccc(O)cc1)NC(=O)[C@H](CO)NC(=O)[C@H](CO)NC(=O)[C@@H](NC(=O)[C@H](CC(=O)O)NC(=O)[C@H](CO)NC(=O)[C@@H](NC(=O)[C@H](Cc1ccccc1)NC(=O)[C@@H](NC(=O)CNC(=O)[C@H](CCC(=O)O)NC(=O)[C@H](C)NC(=O)[C@@H](N)Cc1c[nH]cn1)[C@@H](C)O)[C@@H](C)O)C(C)C)C(=O)N[C@@H](CCC(=O)O)C(=O)N[C@@H](Cc1ccccc1)C(=O)N[C@H](C(=O)N[C@@H](C)C(=O)N[C@@H](Cc1c[nH]c2ccccc12)C(=O)N[C@@H](CC(C)C)C(=O)N[C@H](C(=O)N[C@@H](CCCNC(=N)N)C(=O)NCC(=O)N[C@@H](CCCNC(=N)N)C(=O)NCC(=O)O)C(C)C)[C@@H](C)CC)C(=O)O", "note": "[GLP1, Arg^34, Lys^26(N^ε-(γ-Glu(N^α-hexadecanoyl)))-GLP-1(7-37)]", "values": [{"measurement": "free fatty acids, group C compared to group A", "setting": "[1]; [3]", "result": "significant reduction"}, {"measurement": "total cholesterol, group C compared to group A", "setting": "[1]; [3]", "result": "significant reduction"}, {"measurement": "Free fatty acids", "setting": "[1]; [4]", "result": "0.29 ± 0.04", "unit": "mM"}, {"measurement": "Total cholesterol", "setting": "[1]; [4]", "result": "2.9 ± 0.1", "unit": "mM"}, {"measurement": "Free fatty acids", "setting": "[1]; [5]", "result": "0.20 ± 0.02", "unit": "mM"}, {"measurement": "Total cholesterol", "setting": "[1]; [5]", "result": "2.2 ± 0.1", "unit": "mM"}, {"measurement": "blood glucose levels during a normal 24-hour feeding schedule", "setting": "[1]; group B (low dose), 30 µg/kg s.c. bi-daily", "result": "hyperglycemic"}, {"measurement": "blood glucose levels during a normal 24-hour feeding schedule", "setting": "[1]; group C, 150 µg/kg s.c. bi-daily", "result": "unchanged compared to the initial measurements"}, {"measurement": "glycemic level in oral glucose tolerance test", "setting": "[1]; group C, 150 µg/kg s.c. bi-daily, after 36 days of dosing, 11-hour fast, 1 g/kg glucose by oral gavage, compared to groups A and B", "result": "significantly lower"}, {"measurement": "body weight", "setting": "[2]", "result": "reduced body weight"}, {"measurement": "food intake", "setting": "[2]", "result": "inhibition of food intake was observed"}, {"measurement": "plasma levels of triglycerides", "setting": "normal Wistar rats", "result": "1.21 ± 0.3", "unit": "mM"}]}]}
